Results on four sequences are retold here after PMC12394722.

Chains of the proteins cited; added tags and fusions are not shown. Residues count along the entry.
UniProt O00571, 1-132 K35A/R37A/R44A/R46A/K50A: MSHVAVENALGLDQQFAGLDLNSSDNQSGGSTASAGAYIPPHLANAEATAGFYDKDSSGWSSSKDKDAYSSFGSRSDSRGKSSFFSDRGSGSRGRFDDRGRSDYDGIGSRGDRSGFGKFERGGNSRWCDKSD
UniProt O00571, 1-132: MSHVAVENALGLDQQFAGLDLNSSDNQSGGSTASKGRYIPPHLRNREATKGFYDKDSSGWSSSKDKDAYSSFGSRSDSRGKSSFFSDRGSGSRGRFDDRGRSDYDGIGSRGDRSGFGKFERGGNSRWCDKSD
UniProt O00571, 31-61: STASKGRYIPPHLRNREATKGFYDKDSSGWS
UniProt O00571, 73-102: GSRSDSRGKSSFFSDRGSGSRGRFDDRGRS
UniProt O00571, 1-607: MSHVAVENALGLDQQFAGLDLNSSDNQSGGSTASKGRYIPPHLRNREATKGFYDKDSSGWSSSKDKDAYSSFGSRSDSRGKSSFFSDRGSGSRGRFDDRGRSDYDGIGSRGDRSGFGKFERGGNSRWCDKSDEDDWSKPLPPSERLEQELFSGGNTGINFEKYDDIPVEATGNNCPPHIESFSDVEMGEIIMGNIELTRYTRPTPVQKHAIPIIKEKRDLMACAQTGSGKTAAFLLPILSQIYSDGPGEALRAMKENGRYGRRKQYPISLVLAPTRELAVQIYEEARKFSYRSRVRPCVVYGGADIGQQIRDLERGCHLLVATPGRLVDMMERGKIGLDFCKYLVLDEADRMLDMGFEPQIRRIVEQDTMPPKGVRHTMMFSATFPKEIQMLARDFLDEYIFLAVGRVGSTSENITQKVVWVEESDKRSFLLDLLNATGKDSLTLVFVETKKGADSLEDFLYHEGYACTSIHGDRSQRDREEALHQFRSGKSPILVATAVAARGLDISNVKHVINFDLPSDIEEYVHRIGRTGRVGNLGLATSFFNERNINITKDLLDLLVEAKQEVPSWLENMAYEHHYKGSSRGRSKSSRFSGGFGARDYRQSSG

In data set [1] the target is N-IDR RKtoA-1 K35A,R37A,R44A,R46A,K50A (human) (UniProt O00571). In words: NMR. Particulars: mutated region lost, other RR clusters bind as WT; NMR: 200 mM KCl (also 120 mM), 10 C, 50 uM; recombinant protein; residues 1-132; protein details: His6-SUMO tag cleaved.
Data set [2] deals with DDX3X N-IDR (human) (UniProt O00571). In words: NMR. Conditions: NMR: 200 mM KCl (also 120 mM), 10 C, 50 uM, recombinant protein, residues 1-132, protein details: His6-SUMO tag cleaved (Ulp1).
Data set [3] deals with RR-1 fragment (human) (UniProt O00571). In words: ITC. Conditions: range over RR-1/RR-2 and both GQ RNAs, 50 mM KCl; ITC: 20 mM K-phosphate pH 7.0, 50 mM KCl, 25 C; recombinant protein; residues 31-61; protein details: His6-SUMO tag cleaved.
For data set [4], the target named is RR-2 fragment (human) (UniProt O00571). In words: ITC. Conditions: range over RR-1/RR-2 and both GQ RNAs, 50 mM KCl; ITC: 20 mM K-phosphate pH 7.0, 50 mM KCl, 25 C; recombinant protein; residues 73-102; protein details: His6-SUMO tag cleaved.
Data set [5] concerns the target N-Core-MBP DDX3X (human) (UniProt O00571). The data set can be described thus: NMR. Conditions: NMR: 200 mM KCl (also 120 mM), 10 C, 50 uM; recombinant protein; residues 1-607; protein details: C-terminal MBP.

For some assays here: A negative result means that nothing was seen under these conditions. For some assays here: The comparison behind a weaker result is the experiment's own reference, which may not be listed here. For some assays here: For at least one entry, the source does not settle the construct or the ends of the probe. For some assays here: At least one verdict rests on a figure or table, not on a statement of the authors.

UAGGGUUAGGGU [telomeric GQ RNA]: the binding result in data set [1] is given as “binds more weakly”; in data set [2] (400 mM KCl) it was “binds more weakly”; in data set [2] (1 M KCl, nearly completely abolished) it was “no binding”; in data set [3] it was “binds”; in data set [4] it was “binds”.
“UGUAGAAAGAGCAGAUCUAGAUGC [NRAS mutant RNA]”: the binding result in data set [5] and in data set [2] (200 mM KCl) was “binds more weakly” in each case.
Turning to UGUGGGAGGGGCGGGUCUGGGUGC [NRAS GQ RNA], the binding result in data set [2] (400 mM KCl) was “binds more weakly”; in data set [3], “binds”; in data set [4], “binds”.
In the case of UUUUUUUUUU [poly-U10], the binding result in data set [2] (200 mM KCl) is reported as “binds more weakly”.
